# Data: the supplement of paper PMC8728848
# This is one part of the list.
# B1: AT3G44510(29) (Arabidopsis thaliana), F4J341 (protein)
# chain: MEEHLQGRIKLHDGRYLAYKERGVPKDDAKFTIVLVHGFGSSKDMNFNVSQELVNEIGIYFVLYDRAGYGESDPNPKRSLKSEAYDVQELADGLEIGSRFYLIGISMGSYTVWSCLKHIPQRLAGVAMVAPVVNFRWPSIPKSLMPKDYRREVAKWSVWIANYFPGLLQWLVTQNMFSTTSMLEKNPVYFNDQDIEVLKHIKGFPMLTKEKLRERGVFGTLRSDFLVAFGDWDFDPADLPDPSLSGPEKGSSSVHIWQGYEDKVMPFQLQRCLCRKLPWIRYHEVPKGGHLIVHYDGICDAILKSLLLGEDLPMYKPKAVITEPA
# Assays:
# Experiment in all cases: glycan array binding signal (z-score within array); higher = stronger binding
# Settings in all cases: glycan notation: IUPAC condensed, linker removed
# [1] = biological target: Gal(b1-4)GlcNAc(b1-3)Gal(b1-4)GlcNAc(b1-3)[Gal(b1-4)GlcNAc(b1-3)Gal(b1-4)GlcNAc(b1-6)]GalNAc
# Method in brief: (§1)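 Glycan array binding is given as a within-array Z-score, which can be read as non-binding when negative. The arrays, 3228 of them, came from the Consortium for Functional Glycomics database and were retained only where the protein sequence was available. Z-scores were averaged across arrays of the same protein sequence at different concentrations or buffers and across linkers.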
# [2] = biological target: Gal(b1-4)GlcNAc(b1-3)Gal(b1-4)GlcNAc(b1-6)[Gal(b1-3)]GalNAc
# Method in brief: as §1
# [3] = biological target: Gal(b1-4)GlcNAc(b1-3)Gal(b1-4)[Fuc(a1-3)]GlcNAc(b1-3)Gal(b1-4)[Fuc(a1-3)]GlcNAc
# Method in brief: as §1
# [4] = biological target: Gal(b1-4)GlcNAc(b1-3)GalNAc
# Method in brief: as §1
# [5] = biological target: Gal(b1-4)GlcNAc(b1-3)[Fuc(a1-3)GlcNAc(b1-6)]Gal(b1-4)Glc
# Method in brief: as §1
# [6] = biological target: Gal(b1-4)GlcNAc(b1-3)[Gal(b1-4)GlcNAc(b1-6)]Gal(b1-4)GlcNAc
# Method in brief: as §1
# [7] = biological target: Gal(b1-4)GlcNAc(b1-3)[GlcNAc(b1-6)]Gal(b1-4)GlcNAc
# Method in brief: as §1
# [8] = biological target: Gal(b1-4)GlcNAc(b1-6)Gal(b1-4)GlcNAc
# Method in brief: as §1
# [9] = biological target: Gal(b1-4)GlcNAc(b1-6)GalNAc
# Method in brief: as §1
# [10] = biological target: Gal(b1-4)GlcNAc(b1-6)[Gal(b1-3)]GalNAc
# Method in brief: as §1
# [11] = biological target: Gal(b1-4)GlcNAc(b1-6)[Gal(b1-4)GlcNAc(b1-3)]GalNAc
# Method in brief: as §1
# [12] = biological target: Gal(b1-4)GlcNAc6P
# Method in brief: as §1
# [13] = biological target: Gal(b1-6)Gal
# Method in brief: as §1
# [14] = biological target: Gal3S(b1-3)GalNAc
# Method in brief: as §1
# [15] = biological target: Gal3S(b1-3)GlcNAc
# Method in brief: as §1
# [16] = biological target: Gal3S(b1-3)[Fuc(a1-4)]GlcNAc
# Method in brief: as §1
# [17] = biological target: Gal3S(b1-4)Glc
# Method in brief: as §1
# [18] = biological target: Gal3S(b1-4)Glc6S
# Method in brief: as §1
# [19] = biological target: Gal3S(b1-4)GlcNAc
# Method in brief: as §1
# [20] = biological target: Gal3S(b1-4)[Fuc(a1-3)]Glc6S
# Method in brief: as §1
# [21] = biological target: Gal3S(b1-4)[Fuc(a1-3)]GlcNAc
# Method in brief: as §1
# [22] = biological target: Gal3S(b1-4)[Fuc(a1-3)]GlcNAc6S
# Method in brief: as §1
# [23] = biological target: Gal3S4S(b1-4)GlcNAc
# Method in brief: as §1
# [24] = biological target: Gal3S6S(b1-4)GlcNAc
# Method in brief: as §1
# [25] = biological target: Gal3S6S(b1-4)GlcNAc6S
# Method in brief: as §1
# [26] = biological target: Gal4S(b1-4)GlcNAc
# Method in brief: as §1
# [27] = biological target: Gal4S6S(b1-4)GlcNAc
# Method in brief: as §1
# [28] = biological target: Gal6P(b1-4)GlcNAc
# Method in brief: as §1
# [29] = biological target: Gal6S(b1-3)GlcNAc
# Method in brief: as §1
# [30] = biological target: Gal6S(b1-3)GlcNAc6S
# Method in brief: as §1
# [31] = biological target: Gal6S(b1-4)Glc
# Method in brief: as §1
# [32] = biological target: Gal6S(b1-4)Glc6S
# Method in brief: as §1
# [33] = biological target: Gal6S(b1-4)GlcNAc
# Method in brief: as §1
# [34] = biological target: Gal6S(b1-4)GlcNAc6S
# Method in brief: as §1
# [35] = biological target: GalNAc(a1-3)Gal
# Method in brief: as §1
# [36] = biological target: GalNAc(a1-3)GalNAc
# Method in brief: as §1
# [37] = biological target: GalNAc(a1-3)GalNAc(b1-3)Gal(a1-4)Gal(b1-4)Glc
# Method in brief: as §1
binder,measurement,setting,value
B1,glycan array binding signal (z-score),[1],0.078
same,glycan array binding signal (z-score),[2],-0.218
same,glycan array binding signal (z-score),[3],-0.05
same,glycan array binding signal (z-score),[4],-0.123
same,glycan array binding signal (z-score),[5],-0.587
same,glycan array binding signal (z-score),[6],-0.167
same,glycan array binding signal (z-score),[7],-0.385
same,glycan array binding signal (z-score),[8],-0.161
same,glycan array binding signal (z-score),[9],0.935
same,glycan array binding signal (z-score),[10],-0.552
same,glycan array binding signal (z-score),[11],0.477
same,glycan array binding signal (z-score),[12],-0.557
same,glycan array binding signal (z-score),[13],-0.503
same,glycan array binding signal (z-score),[14],-0.428
same,glycan array binding signal (z-score),[15],0.218
same,glycan array binding signal (z-score),[16],1.1
same,glycan array binding signal (z-score),[17],-0.113
same,glycan array binding signal (z-score),[18],0.282
same,glycan array binding signal (z-score),[19],0.576
same,glycan array binding signal (z-score),[20],1.66
same,glycan array binding signal (z-score),[21],0.527
same,glycan array binding signal (z-score),[22],-0.023
same,glycan array binding signal (z-score),[23],0.046
same,glycan array binding signal (z-score),[24],0.027
same,glycan array binding signal (z-score),[25],0.77
same,glycan array binding signal (z-score),[26],-0.704
same,glycan array binding signal (z-score),[27],-0.352
same,glycan array binding signal (z-score),[28],-0.608
same,glycan array binding signal (z-score),[29],-0.183
same,glycan array binding signal (z-score),[30],-0.405
same,glycan array binding signal (z-score),[31],-0.234
same,glycan array binding signal (z-score),[32],-0.052
same,glycan array binding signal (z-score),[33],0.603
same,glycan array binding signal (z-score),[34],-0.627
same,glycan array binding signal (z-score),[35],-0.061
same,glycan array binding signal (z-score),[36],-0.417
same,glycan array binding signal (z-score),[37],-0.476

# Part of the list above, with tabs.
binder	measurement	setting	value
B1	glycan array binding signal (z-score)	[18]	0.282
same	glycan array binding signal (z-score)	[29]	-0.183
same	glycan array binding signal (z-score)	[33]	0.603
